# Measurements reported in PubChem BioAssay AID540275 (National Center for Advancing Translational Sciences (NCATS), 2011).
# Amino acid sequences for entries named in this document (tags omitted).
# UniProt Q8NER1, whole entry, looked up: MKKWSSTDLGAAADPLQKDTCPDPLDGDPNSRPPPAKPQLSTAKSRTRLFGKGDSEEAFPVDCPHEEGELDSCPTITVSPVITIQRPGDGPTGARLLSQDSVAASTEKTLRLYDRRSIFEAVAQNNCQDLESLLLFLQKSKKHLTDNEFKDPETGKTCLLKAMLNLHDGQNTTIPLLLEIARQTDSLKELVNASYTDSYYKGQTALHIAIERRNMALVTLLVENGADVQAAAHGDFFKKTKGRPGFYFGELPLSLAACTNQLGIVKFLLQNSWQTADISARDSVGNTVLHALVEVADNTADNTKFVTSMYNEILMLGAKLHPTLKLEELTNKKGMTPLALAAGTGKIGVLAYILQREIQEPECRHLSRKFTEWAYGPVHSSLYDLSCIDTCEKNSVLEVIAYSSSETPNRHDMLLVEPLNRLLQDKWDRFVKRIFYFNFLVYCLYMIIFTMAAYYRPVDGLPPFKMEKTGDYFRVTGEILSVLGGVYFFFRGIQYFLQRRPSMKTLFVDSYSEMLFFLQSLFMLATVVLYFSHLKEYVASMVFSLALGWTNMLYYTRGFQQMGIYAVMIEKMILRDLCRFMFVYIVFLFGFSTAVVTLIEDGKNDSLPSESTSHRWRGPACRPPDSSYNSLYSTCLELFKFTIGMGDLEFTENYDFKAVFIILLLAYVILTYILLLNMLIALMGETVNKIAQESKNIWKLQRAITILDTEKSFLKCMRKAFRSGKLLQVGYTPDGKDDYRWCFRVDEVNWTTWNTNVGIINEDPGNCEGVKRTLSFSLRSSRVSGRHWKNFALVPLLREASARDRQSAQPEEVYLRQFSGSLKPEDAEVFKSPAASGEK
# Hit rate of the full screen: of about 320,000 compounds, about 620 (0.19%) were called active. The shares of active, inactive and inconclusive entries below differ from those in the screen. Cut-off read from the data, not from the text of the source: active = activation above about 80%; inconclusive = between about 30% and that limit; inactive = weaker than that.
# Biological target: Transient receptor potential cation channel subfamily V member 1 (Homo sapiens) (UniProt Q8NER1)
# Experiment: HTS Assay for Compounds that Act as Agonists of the Vanilloid Receptor 1; note: 0% is about no effect
# Settings: TRPV1-expressing cells, Fluo-8 calcium influx, agonist mode; at 8.33 µM, active compounds read high
# Method in brief: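 Cells expressing TRPV1 were dye-loaded with Fluo-8 and read kinetically: 10 s baseline, 3 min after compound (agonist portion), then 2 min after EC20 capsaicin (allosteric enhancer portion). Calcium-bound dye fluorescence at 480/520 nm.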
row,SMILES,activation
1,O=C(CCCOc1ccccc1)Nc1cccnc1,inconclusive: 34.5%
2,COc1ccc(CNC(=S)N/N=C(/C)c2ccccc2)cc1,inactive: 7.76%
3,CC(NC(=O)c1ccc(F)cc1)C1CC2CCC1C2 (stereo not given),inconclusive: 39.6%
4,CCN(CC)c1ccc(/C=N/NC(=O)c2ccco2)c(O)c1,inconclusive: 57.5%
5,CCOC(=O)C1CCN(C(=O)c2cc(COc3ccc(F)cc3F)on2)CC1,inconclusive: 33.5%
6,CC1=CC2=NC(=O)/C(=C/c3cccn3Cc3ccccc3)C(=N)N2O1,inconclusive: 44.2%
7,Cc1ccc(NC2CCCN(C(=O)CCC(=O)c3ccccc3)C2)cc1C (stereo not given),active: 92.5%
8,Cc1cccc(-n2ncc3c(NCCCn4ccnc4)ncnc32)c1,inactive: -1.54%
9,N=C1c2ccccc2CN1c1ccc(N2CCOCC2)c(S(=O)(=O)Nc2ccc(Cl)cc2)c1,inactive: -2.03%
10,COc1ccc(C(=O)OCC(=O)NCC2CCCCC2)cc1F,inactive: 16.8%
11,Cc1ccc(NC(=O)CCCNC(=O)c2ccc(Cl)cc2)cc1S(=O)(=O)N1CCCCC1,inactive: 6.66%
12,CCOc1ccc(C(C(=O)NC2CCCCC2)N(C(=O)c2ccco2)c2ccc(-n3cnnn3)c(C)c2)cc1 (stereo not given),inconclusive: 39.7%
13,COc1ccc(Cn2c(O)c(/C=N/NC(=O)c3cccnc3)c3ccccc3c2=O)cc1,inconclusive: 40%
14,Cn1c(C(=O)NC2CCCCCC2)cc2c(=O)n(C)c3ccccc3c21,inconclusive: 36.1%
15,CC(C)C[C@@H](C)C(=O)N(Cc1ccccc1)c1ccccc1,inconclusive: 31.8%
16,CCCCn1nc(NC(=O)c2cccs2)c2cc3cc(OC)ccc3nc21,inconclusive: 68.5%
17,CC(C)CNS(=O)(=O)c1ccc(NC(=O)Cn2nc(-c3ccc(F)cc3)ccc2=O)cc1,inconclusive: 41.7%
18,O=C1C([N+](=O)[O-])=C(O)c2cccc3cccc1c23,inactive: 2.21%
19,CC(C)CCN(C(=O)c1csnn1)C(C(=O)NC1CCCCC1)c1ccc(F)cc1 (stereo not given),inconclusive: 42.9%
20,Cc1ccc(CCS(=O)(=O)c2ccc(C(C)(C)C)cc2)cn1,inconclusive: 36.6%
21,COc1ccc(CNC(=O)C(c2cccs2)N(Cc2ccco2)C(=O)Cc2cccs2)cc1 (stereo not given),inconclusive: 34.7%
22,Cc1ccc(NC(=O)C2CC(=O)N(CCc3ccccc3)C2)cc1Cl (stereo not given),inconclusive: 40.5%
23,O=C(Nc1nnc(COc2ccc(Cl)cc2)s1)C1CCCO1 (stereo not given),inconclusive: 43.9%

row,SMILES,activation
1,Cc1ccc(-c2noc(C3CCCN(C(=O)c4cccc(F)c4)C3)n2)cc1 (stereo not given),inconclusive: 45.3%
2,CCn1c(CN2CCCCC2)nc2cc(S(=O)(=O)N3CCCCC3)ccc21,inconclusive: 71.9%
3,O=C(Nc1cnccn1)c1ccc(Cl)cc1,inconclusive: 40.3%
4,Fc1ccccc1Nc1nc(NCc2ccco2)nc(N2CCOCC2)n1,inconclusive: 39.3%
5,Cc1c(CNC(=O)C2CC2)c(-n2cccc2)n(Cc2ccccc2)c1C,inactive: -1.49%
6,CN(C)C(=O)c1c(NC(=O)c2ccco2)sc2c1CCCCC2,inactive: 17.1%
7,Cc1ccc(C(=O)Nc2ccc3c(c2)CCC3)cc1S(=O)(=O)N1CCOCC1,inconclusive: 59.3%
8,O=C(Nc1cccc2ncccc12)c1ccc(Br)c([N+](=O)[O-])c1,inconclusive: 32%
9,Cc1cccc(NC(=O)c2ccc3c(c2)CCN3S(C)(=O)=O)c1C,inconclusive: 42%
10,Cc1occc1-c1nnc(SCC(=O)N2CCCCC2C)o1 (stereo not given),inconclusive: 54.7%
11,Cc1ccc2nc(SCC(=O)Nc3cccc(S(=O)(=O)N(C)C)c3)[nH]c2c1,inconclusive: 40.8%
12,COC(=O)N/C(C)=C1/NC(=O)c2ccccc2C(c2ccccc2)N1 (stereo not given),inconclusive: 38.1%
13,CCCCOC(=O)Oc1ccc2c(=O)c(Oc3cccc(C)c3)coc2c1,inconclusive: 49.4%
14,O=[N+]([O-])c1cc(-c2n(-c3ccccn3)c3ccccc3[n+]2-c2ccccn2)ccc1Cl,inactive: 2.66%
15,O=C(NCC1CCCN1S(=O)(=O)c1cccs1)c1c(F)cccc1F (stereo not given),inactive: -1.88%
16,CC(OC(=O)CC1CCCCC1)C(=O)Nc1ccc(S(N)(=O)=O)cc1 (stereo not given),inconclusive: 39.5%
17,COc1ccc(C2C3=C(N=C4SCC(=O)N42)c2ccccc2CC3)cc1OC (stereo not given),inactive: -0.628%
18,O=C(Nc1ccncc1)c1ccc2c(c1)S(=O)(=O)c1ccccc1C2=O,inconclusive: 38.5%
19,O=C(Nc1ccccc1N1CCN(C(=O)c2ccc(Cl)cc2)CC1)c1cccc([N+](=O)[O-])c1,inactive: -4.26%
20,O=C(Nc1cccc(C(F)(F)F)c1)c1cncs1,inconclusive: 50.7%
21,COc1ccc(NC(=O)c2cccc(OC(=S)N3CCOCC3)c2)cc1,inconclusive: 39.6%
22,CSc1ccc(S(=O)(=O)Nc2ccc3c4c(cccc24)CC3)cc1,inconclusive: 31.5%
23,COc1ccc(/C=C/c2nc3cc(-c4ccccc4)ccc3o2)cc1O,inactive: 24.5%

row,SMILES,activation
1,Cc1ccc(C)c(NC(=O)CN(C)C(=O)c2cc3c(s2)CCCCC3)c1,inconclusive: 33.7%
2,Cc1ccc(CN2CCN(Cc3ccon3)CC2CCO)cc1 (stereo not given),inactive: -4.1%
3,O=C1CCc2cc(S(=O)(=O)N3CCC(C(=O)NC4CCCC4)CC3)ccc2N1,inactive: -1.41%
4,O=C(NNc1nc2c(F)cc(F)cc2s1)c1ccccc1,inactive: 14.7%
5,Cc1cccc(NC(=O)c2ccc(-n3ccnc3)nc2)c1,inconclusive: 73.8%
6,O=C(COC(=O)CCCOc1ccc(Cl)cc1Cl)NCc1ccc(F)cc1,inconclusive: 31.8%
7,Cc1c(C(=O)NC2=NCCS2)cccc1[N+](=O)[O-],inactive: -6.44%
8,Cc1ccc2c(c1)c1c(n2CC(O)CN2C(=O)CNC2=O)C(=O)CCC1 (stereo not given),inconclusive: 35.2%
9,CC1CCCC(C)N1C(=O)c1cc(-c2ccc(Cl)c(Cl)c2)on1 (stereo not given),inconclusive: 31.8%
10,CCOC(=O)C1=C(C)N=C2c3ccccc3C(=O)C2C1c1ccc(Cl)cc1 (stereo not given),inconclusive: 36.9%
11,Cc1ccc(C(=O)OCC(=O)c2cc(C)n(CC3CCCO3)c2C)cc1 (stereo not given),inconclusive: 30.1%
12,CCCCCn1c(N2CCN(Cc3ccccc3)CC2)nc2c1c(=O)[nH]c(=O)n2C,inactive: 22.1%
13,CC(Oc1cccc(Cl)c1)C(=O)Nc1ccc(N2CCOCC2)cc1N1CCOCC1 (stereo not given),inconclusive: 52%
14,CN(Cc1c(F)cccc1Cl)C(=O)CNC(=O)c1ccc2c(c1)OCO2,inconclusive: 61.1%
15,O=C(Nc1ccc2c(c1)C(=O)N(CC1CCCO1)C2=O)c1ccc(Cl)c(Cl)c1 (stereo not given),inconclusive: 33.8%
16,COC(=O)c1sc(NC(=O)c2c(OC)cccc2OC)c(C#N)c1C,inactive: -4.7%
17,COc1ccc(NS(=O)(=O)c2cc(NC(=O)C3CC3)ccc2N2CCCCC2)cc1,inconclusive: 37.7%
18,C=CCN1C(=O)CSc2ccc(C(=O)NCCC3=CCCCC3)cc21,inconclusive: 49.2%
19,CCCCCCCCCC(=O)N/N=C/c1ccc(C)s1,inconclusive: 68.4%
20,C=CCc1cccc(/C=N/NC(=O)c2ccc3nc[nH]c3c2)c1O,inconclusive: 55.1%
21,CC(C)N(C(=O)CSc1nc2ccccc2n1-c1ccccc1)C(C)C,inconclusive: 53.7%
22,O=C(Nc1ccccc1Cl)Nc1cccnc1Cl,inconclusive: 72.3%
23,Cc1ccc(C(=O)Nc2ccc(C)c(S(=O)(=O)N(C)C)c2)s1,inconclusive: 35.6%

# Rewritten as tab-separated lines: 4 of the compounds above.
row	SMILES	activation
16	CCCCn1nc(NC(=O)c2cccs2)c2cc3cc(OC)ccc3nc21	inconclusive: 68.5%
8	Cc1ccc2c(c1)c1c(n2CC(O)CN2C(=O)CNC2=O)C(=O)CCC1 (stereo not given)	inconclusive: 35.2%
20	C=CCc1cccc(/C=N/NC(=O)c2ccc3nc[nH]c3c2)c1O	inconclusive: 55.1%
23	Cc1ccc(C(=O)Nc2ccc(C)c(S(=O)(=O)N(C)C)c2)s1	inconclusive: 35.6%

# (more compounds)

row,SMILES,activation
1,COc1cccc(-c2cc(C(F)(F)F)nc(-n3cccn3)n2)c1,inconclusive: 45.4%
2,CN(C)c1ccnc(Oc2ccc(C(C)(C)C)cc2)c1C#N,inconclusive: 67.3%
3,O=C1N=C(N2CCCCC2)S/C1=C\c1ccccc1F,inconclusive: 36.3%
4,O=C(N/N=C/c1cc(Br)c(Br)s1)c1ccncc1,inconclusive: 43.8%
5,COc1cc(C2CC(=O)OC3=C2C(=O)CC(C)(C)C3)cc(OC)c1OC (stereo not given),inactive: -0.646%
6,O=C(NCCc1ccccn1)c1nc(Cn2ccc([N+](=O)[O-])n2)no1,inactive: 10.8%
7,COc1ccc(OC)c(-c2cc(C(=O)N3CCc4ccccc4C3)no2)c1,inconclusive: 34.3%
8,C/C(=N\NC(=O)c1cc(C2CC2)nc2ccccc12)c1ccc(C)s1,inactive: 15.2%
9,CCCC(=O)OCCNc1cc(Sc2nc3ccccc3[nH]2)c2nonc2c1[N+](=O)[O-],inactive: 1.6%
10,CC1=CC(C)(C)N(C(=O)C(C)N2C(=O)c3ccccc3C2=O)c2ccc(C)cc21 (stereo not given),inconclusive: 34%
11,CCOC(=O)c1cccc(NC(=O)Nc2ccc(OCC)cc2)c1,inconclusive: 33.2%
12,O=C(NCCCN1CCOCC1)c1ccc2c(c1)N(Cc1cccc(F)c1)C(=O)c1ccccc1S2,inconclusive: 34.2%
13,Nc1nonc1/C(=N/O)N1CCN(CCO)CC1,inactive: -2.23%
14,O=C(Nc1ccncc1)c1cc2ccccc2o1,inconclusive: 47.8%
15,Cc1ccc(C(=O)CNc2ccc(Cl)cc2)cc1,inactive: 28.3%
16,Cc1ccc(C(=O)OCC(=O)NCc2cccs2)cc1S(=O)(=O)N1CCOCC1,inconclusive: 32.4%
17,CCCCCC1CCC(c2n[nH]c(=S)n2C)CC1 (stereo not given),inactive: 13.5%
18,CCCOc1ccc(S(=O)(=O)NCCCN2CCOCC2)c2ccccc12,inactive: 10.4%
19,COCCCNC(=O)CCc1c(C)nc2c(c(C)nn2-c2ccccc2)c1C,inconclusive: 71.3%
20,Cc1nn(C)c(Cl)c1CN1CCCC(CO)(Cc2ccccc2)C1 (stereo not given),inactive: -0.704%
21,CCOc1cc(S(=O)(=O)n2cc(-c3ccc(F)cc3)c(N)n2)cc(OCC)c1OCC,inconclusive: 36.3%
